Measurements reported in US20190382732A1.
These are yes or no findings as the source states them, for the method shown. Binding seen in cells or lysates may run through a third protein. Some entries that bind do so weakly or less than the wild type. Sequences can lack the tags named with a protein.

T1: FLAG-tagged Myomaker (mouse), Q9D1N4
T1 chain: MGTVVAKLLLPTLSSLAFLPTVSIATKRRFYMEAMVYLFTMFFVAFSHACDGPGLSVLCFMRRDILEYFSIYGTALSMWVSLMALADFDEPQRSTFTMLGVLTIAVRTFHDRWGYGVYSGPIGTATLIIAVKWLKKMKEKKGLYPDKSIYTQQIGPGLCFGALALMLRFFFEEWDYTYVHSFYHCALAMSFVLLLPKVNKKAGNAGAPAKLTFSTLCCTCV

T2: Myomixer (mouse)
T2 chain: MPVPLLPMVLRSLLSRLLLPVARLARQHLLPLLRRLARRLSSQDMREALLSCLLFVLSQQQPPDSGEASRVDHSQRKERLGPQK


Legend:
[1] = molecular target: T1, FLAG-tagged Myomaker (mouse), Q9D1N4; experiment: co-immunoprecipitation, 10T1/2 cells or C2C12 myoblasts infected with retroviruses expressing Myomixer and/or FLAG-Myomaker; conditions: remark: other sources report otherwise
[2] = molecular target: T2, Myomixer (mouse); experiment: co-immunoprecipitation with anti-FLAG M2 resin from lysates of retrovirus-infected cells, western blot; conditions: remark: other sources report otherwise

binding [1]	binding [2]	Binder
binds	–	Myomixer (peptide) MPVPLLPMVLRSLLSRLLLPVARLARQHLLPLLRRLARRLSSQDMREALLSCLLFVLSQQQPPDSGEASRVDHSQRKERLGPQK
–	binds	FLAG-tagged Myomaker, Q9D1N4 1-221 (protein, not shown: small tags and cut ends) MGTVVAKLLLPTLSSLAFLPTVSIATKRRFYMEAMVYLFTMFFVAFSHACDGPGLSVLCFMRRDILEYFSIYGTALSMWVSLMALADFDEPQRSTFTMLGVLTIAVRTFHDRWGYGVYSGPIGTATLIIAVKWLKKMKEKKGLYPDKSIYTQQIGPGLCFGALALMLRFFFEEWDYTYVHSFYHCALAMSFVLLLPKVNKKAGNAGAPAKLTFSTLCCTCV
